Experimental data reported in ChEMBL document CHEMBL4321828, “Recent developments on (-)-colchicine derivatives: Synthesis and structure-activity relationship” (Eur J Med Chem, 2020).

System: COLO 205
Experiment: Antiproliferative activity against human COLO205 cells assessed as reduction in cell viability incubated for 48 hrs by MTT assay
Format: functional, cell-based
Conditions: COLO 205, 48 h

COc1cc2c(c(OC)c1OC)-c1ccc(OC)c(=O)cc1[C@@H](NC(C)=O)CC2 [COLCHICINE]
IC50: 32 nM
